# Data reported in patent US9950038B2 (THE TRUSTEES OF THE UNIVERSIY OF PENNSYLVANIA, priority 2011, dated 2018).
# Test: general procedure: Fmoc solid-phase peptide synthesis; DCC/HOBt
# Settings: whole synthesis
substance,measurement,setting,value
GLP-1 (7-36) amide,final HPLC purity,,greater than 99%
same,final purity (method not given),HPLC,85% pure
